# Test results as given in PubChem BioAssay AID504467 (National Center for Advancing Translational Sciences (NCATS), 2011).
# The whole screen tested about 330,000 compounds, of which about 7,700 (2.3%) were called active. Inconclusive results, whose numbers are uncertain, are shown with a selection of clear calls. Calls follow the shape of the dose curve; as a rule, active = well fitted inhibition curve with a large enough effect; inconclusive = small, poorly fitted or top-dose-only effect, or effect the other way; inactive = flat fitted curve, though single readings scatter. Where the call is inconclusive, the potency comes from a doubtful curve fit.
# Assay: qHTS screen for small molecules that inhibit ELG1-dependent DNA repair in human embryonic kidney (HEK293T) cells expressing luciferase-tagged ELG1; also: nearly all actives have a fitted effect of over 55% in size
# Conditions: HEK293T ELG1-luciferase reporter, luminescence, 16 h, DNA damage induced by 5-fluorouridine; activity change, negative = inhibition: at 46.1 µM (top of the series)
# Outline: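 Luminescence from the luciferase reporter, measured 30 min after ONE-Glo reagent at room temperature, was the read-out. Beforehand, 2,000 cells per well were exposed for 16 hr at 37 °C to 5-fluorouridine together with compound or vehicle.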
# % is scaled to controls: 0 for no effect and ±100 for the full control effect; potency is read from the fitted curve at half-maximal effect.
SMILES,Potency,"activity change, negative = inhibition"
O=C(COC(=O)CNS(=O)(=O)c1cccc(Br)c1)NC(=O)Nc1ccc2c(c1)OCCO2,"inconclusive: 10.3 µM [activator, partial curve]",
Cc1cccc(NS(=O)(=O)c2cc(C(=O)OC(C)C(=O)NCc3ccc4c(c3)OCO4)ccc2C)c1 (configuration not stated),active: 23.1 µM,
CCCCCCn1ccc(=N)cc1,active: 3.66 µM,
COc1cccc(-c2nn(-c3ccc(C)cc3)cc2C(=O)N2CCc3cc(OC)c(OC)cc3C2)c1,"inconclusive: 29.1 µM [inhibitor, single point]",
COc1cccc2c1cc1c(=O)n(CC(=O)N3CCC(C)CC3)nc(C)n12,,inactive: 15.8%
CCc1ccc(-c2nc(CS(=O)CC(=O)NCCCN3CCOCC3)c(C)o2)cc1 (configuration not stated),,inactive: 17%
CC(=O)N1N=C(c2ccccc2)CC1c1ccccc1 (configuration not stated),,inactive: 15.5%
Cc1cccc(C(=O)NNc2ncnc3c2cnn3C)c1,,inactive: -15%
CN(C)S(=O)(=O)c1cccc(NC(=O)COC(=O)/C=C/c2ccco2)c1,"inconclusive: 29.1 µM [activator, single point]",
O=C(N/N=C/c1ccc([N+](=O)[O-])o1)C(O)c1ccccc1 (configuration not stated),"inconclusive: 18.3 µM [inhibitor, partial curve]",
O=C(CCNS(=O)(=O)c1ccccc1)NNC(=O)C1COc2ccccc2O1 (configuration not stated),,inactive: 0.866%
N#CC(C#SN)=C1CCCCC1,"inconclusive: 35.5 µM [inhibitor, single point]",
O=C1N=C(N2CCOCC2)S/C1=C\c1ccccc1OS(=O)(=O)c1ccccc1,"inconclusive: 6.51 µM [inhibitor, single point]",
CN(c1cccc(NC(=O)Nc2ccc(Cl)cc2)c1)S(C)(=O)=O,"inconclusive: 16.4 µM [activator, single point]",
COc1ccc(-n2cc(CN(C)CCO)c(-c3cccc(F)c3)n2)cc1,"inconclusive: 1.83 µM [activator, full curve]",
COc1ccc2c(c1)c(CCN1C(=O)c3ccccc3C1=O)cn2C(=O)c1ccco1,"inconclusive: 5.17 µM [inhibitor, single point]",
Cc1ccc(S(=O)(=O)NN=C2C3CC4CC(C3)CC2C4)cc1[N+](=O)[O-],"inconclusive: 25.9 µM [activator, partial curve, poor fit]",
O=C(COS(=O)c1ccccc1)Nc1cc(Cl)ccc1N1CCOCC1 (configuration not stated),"inconclusive: 23.1 µM [inhibitor, single point]",
N#CCSc1ccc(S(=O)(=O)N2CCOCC2)cn1,,inactive: 22.3%
Cc1nc(-c2nc(-c3c(C(=O)NNC(=O)Nc4ccccc4)noc3C)cs2)cs1,"inconclusive: 29.1 µM [inhibitor, single point]",
CCOc1ccc2[nH]c(=O)c(CN(Cc3nnnn3CCc3ccccc3)CC3CCCO3)cc2c1 (configuration not stated),"inconclusive: 23.1 µM [inhibitor, single point]",
COc1cc(C(=O)NC(=S)Nc2ccc(Cl)cn2)cc(OC)c1OC,,inactive: -1.22%
CCCc1sc(N)nc1-c1ccc(Cl)cc1,"inconclusive: 18.4 µM [activator, partial curve, poor fit]",
Cc1ccc(NC(=O)C(NC2CCCc3ccccc32)c2ccccc2)cc1Cl (configuration not stated),,inactive: -9.72%

SMILES,Potency,"activity change, negative = inhibition"
COc1cc(OC)c(C(=O)N(CCc2ccccc2)Cc2ccccc2)cc1OC,"inconclusive: 16.4 µM [inhibitor, single point]",
CS(=O)(=O)N1CCCC(C(=O)N2CCOCC2)C1 (configuration not stated),"inconclusive: 25.9 µM [activator, partial curve, poor fit]",
Oc1[nH]c2ccccc2c1N=Nc1ccc(F)cc1,"inconclusive: 18.4 µM [activator, partial curve]",
Cc1ccc(N2CC(C)Cn3c2nc2c3c(=O)[nH]c(=O)n2C)cc1C (configuration not stated),active: 9.2 µM,
Brc1ccc(-c2csc(N3CCc4ccccc4C3)n2)cc1,,inactive: 11.1%
COc1ccc(C(=O)/C=C\c2ccc(NC(=O)c3cccs3)cc2)cc1,"inconclusive: 20.6 µM [activator, partial curve, poor fit]",
Cc1cccc(C(=O)N2CCCCCC2)c1[N+](=O)[O-],"inconclusive: 29.1 µM [inhibitor, single point]",
CN(C)C1(CNC(=O)C2CCC(=O)N(Cc3ccc(Cl)cc3)C2)CCCCC1 (configuration not stated),,inactive: 0%
COc1ccc(C)c2sc(=NC(=O)C(C)C)n(C)c12,,inactive: -0.911%
CSc1nc(Cl)c(Cc2ccc(OC(C)C)cc2)c(N2CCOCC2)n1,"inconclusive: 16.4 µM [inhibitor, single point]",
NC(=O)c1ccsc1NC(=O)CSc1nnc2ccccn12,"inconclusive: 32.6 µM [activator, partial curve, poor fit]",
CC(=O)Nc1ccccc1NC(=O)C/C(C)=N/NC(=O)C1CCCCC1,,inactive: -5.88%
O=C(CSc1nc2ccccc2s1)Nn1cnnc1,"inconclusive: 20.6 µM [activator, partial curve, poor fit]",
COc1ccc(N2CCN(C(=O)c3oc4ccccc4c3C)CC2)cc1,,inactive: -0.85%
COc1ccc(COCC(O)CN2CCCCC2)cc1OC (configuration not stated),"inconclusive: 16.4 µM [activator, single point]",
Cc1[nH]c2ccccc2c1/C=N/NC(=O)C1CC1(c1ccccc1)c1ccccc1 (configuration not stated),"inconclusive: 32.6 µM [inhibitor, partial curve, poor fit]",
Cc1ccc(SCCCCN2CCNCC2)cc1,"inconclusive: 9.2 µM [activator, partial curve]",
CN(C)C(=O)CSc1ccc(S(=O)(=O)N2CCCC2)cn1,"inconclusive: 29.1 µM [activator, single point]",
Cc1cc(C)c(O)c(N)c1,,inactive: 0.063%
Cc1ccc(C)c(-c2cc(C(=O)Nc3cccc(C(=O)O)c3)c3ccccc3n2)c1,,inactive: 16.2%
CC1CN(C(=O)CCC(=O)NCc2ccccc2Cl)c2ccccc2S1 (configuration not stated),,inactive: 2.82%
Cc1ccc2nc(Cl)c(/C=N/Nc3ccc(C(=O)O)cc3)cc2c1,"inconclusive: 2.59 µM [activator, partial curve]",
CC1(C)Cc2c(c(-c3ccco3)nc3sc4c(NCC5CCCO5)ncnc4c23)CO1 (configuration not stated),active: 7.31 µM,

# Laid out differently: entries from further up
SMILES	Potency	activity change, negative = inhibition
COc1ccc(COCC(O)CN2CCCCC2)cc1OC (configuration not stated)	inconclusive: 16.4 µM [activator, single point]	
Cc1[nH]c2ccccc2c1/C=N/NC(=O)C1CC1(c1ccccc1)c1ccccc1 (configuration not stated)	inconclusive: 32.6 µM [inhibitor, partial curve, poor fit]	
